{
  "sequences": {"note": "Amino acid sequences for entries named in this document (tags omitted).", "UniProt Q91WB2": "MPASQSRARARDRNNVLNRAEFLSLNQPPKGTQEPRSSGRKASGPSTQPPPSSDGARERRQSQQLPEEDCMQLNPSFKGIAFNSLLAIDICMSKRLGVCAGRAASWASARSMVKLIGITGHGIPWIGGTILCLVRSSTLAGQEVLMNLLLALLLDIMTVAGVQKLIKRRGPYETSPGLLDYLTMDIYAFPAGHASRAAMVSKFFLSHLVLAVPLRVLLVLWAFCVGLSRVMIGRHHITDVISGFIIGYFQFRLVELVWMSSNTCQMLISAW", "UniProt Q6DVA0": "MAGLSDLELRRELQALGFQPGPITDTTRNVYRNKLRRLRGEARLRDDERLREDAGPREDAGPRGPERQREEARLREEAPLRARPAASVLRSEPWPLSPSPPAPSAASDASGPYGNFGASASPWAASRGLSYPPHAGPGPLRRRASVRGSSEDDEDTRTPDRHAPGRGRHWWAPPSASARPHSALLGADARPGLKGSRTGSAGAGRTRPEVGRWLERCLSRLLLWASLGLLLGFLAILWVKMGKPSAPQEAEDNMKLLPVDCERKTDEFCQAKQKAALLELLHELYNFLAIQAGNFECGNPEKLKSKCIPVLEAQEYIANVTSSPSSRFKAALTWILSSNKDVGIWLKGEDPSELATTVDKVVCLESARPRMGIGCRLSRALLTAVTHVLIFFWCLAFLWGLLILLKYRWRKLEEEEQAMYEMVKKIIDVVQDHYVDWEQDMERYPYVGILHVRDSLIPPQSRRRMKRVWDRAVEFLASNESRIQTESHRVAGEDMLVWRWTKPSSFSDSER"},
  "source": "paper PMC7846557",
  "molecular_target": "Net39-3xFLAG-HA (mouse) (UniProt Q91WB2)",
  "assay": "co-IP; C2C12 myotubes stably expressing Net39-3xFLAG-HA or empty vector; lysis in 50 mM Tris, 150 mM NaCl, 0.2% Triton; anti-FLAG M2 magnetic beads, wash with 350 mM NaCl, elution with 3xFLAG peptide; blot for endogenous LEMD2",
  "note": "No constants are given. Whether binding was seen depends on the method and setting. In cells and extracts the contact can be indirect. Some binding calls cover weakened binding; strength is not graded here.",
  "data": [
    {"substance": "LEMD2 (from UniProt Q6DVA0 1-511)", "values": [
      {"measurement": "binding", "value": "binds"}
    ]}
  ]
}
